Measurements reported in PubChem BioAssay AID1259425 (University of Nebraska Medical Center, 2018).

Aim: 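Compare each knockdown with KSR1 silencing using changes in marker transcripts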 (primary screen)
System: HCT116 human colon cancer cells
Knock-down reagent: siRNA pool against human genes, 50 nM siRNA
Measurement: 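After 50 nM siRNA pool, branched-DNA assay measures six marker transcripts per well, minus blank, normalised to the geometric mean of two housekeeping transcripts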
Scale: BNIP3L mRNA: higher = more BNIP3L transcript after knockdown; NDRG1 mRNA: higher = more NDRG1 transcript after knockdown; BNIP3 mRNA: higher = more BNIP3 transcript after knockdown; ALDOC mRNA: higher = more ALDOC transcript after knockdown; ACSL5 mRNA: higher = more ACSL5 transcript after knockdown
The whole screen tested about 14,000 reagents; shown is a part drawn at random. Not given: the time to read-out.

no.	target gene	BNIP3L mRNA, set 1	NDRG1 mRNA, set 1	BNIP3 mRNA, set 1	ALDOC mRNA, set 1	ACSL5 mRNA, set 1
1	RXRB	0.0451	0.131	0.169	0.0213	0.0859
2	ZIC4	0.131	0.134	0.331	0.124	0.31
3	CLEC11A	0.134	0.0527	0.244	0.0192	0.183
4	DAZ4	0.0922	0.128	0.216	0.0182	0.217
5	AANAT	0.165	0.227	0.397	0.0202	0.161
6	PNRC1	0.0917	0.175	0.243	0.0158	0.314
7	NAB2	0.109	0.136	0.288	0.0109	0.135
8	RPLP0	0.102	0.278	0.32	0.0169	0.15
9	PDGFRB	0.0406	0.108	0.234	0.00559	0.293
10	MKLN1	0.0732	0.0789	0.21	0.0101	0.135
11	ZNF385B	0.117	0.14	0.317	0.0368	0.18
12	SECISBP2	0.138	0.178	0.3	0.0406	0.191
13	GCG	0.282	0.21	0.338	0.0512	0.276
14	BMAL1	0.0993	0.149	0.287	0.0259	0.0957
15	SNX3	0.155	0.229	0.247	0.0457	0.108
16	GAS2L1	0.0921	0.174	0.252	0.0248	0.101
17	COL5A1	0.118	0.145	0.387	0.0294	0.132
18	AXIN2	0.0935	0.156	0.256	0.0175	0.182
19	AVPR2	0.253	0.949	0.448	0.0599	0.302
20	PCSK5	0.28	0.598	0.458	0.118	0.286
21	TMEM41B	0.0813	0.0882	0.28	0.00963	0.112
22	RPL26	0.203	0.585	0.528	0.0113	0.281
23	NFIX	0.0969	0.428	0.23	0.0119	0.141
24	LCN2	0.108	0.165	0.304	0.0124	0.115
25	ULK3	0.134	0.0929	0.248	0.00697	0.0963
26	TKTL2	0.222	0.216	0.43	0.0356	0.459
27	PLXND1	0.187	0.0917	0.335	0.021	0.11
28	PRDM1	0.0971	0.178	0.462	0.00662	0.233
29	FAAH	0.0797	0.0762	0.335	0.0359	0.148
30	KCNMB3	0.123	0.17	0.401	0.0231	0.136
31	CHST12	0.0652	0.121	0.236	-0.000908	0.124
32	SYN2	0.0653	0.12	0.313	0.0252	0.108
33	HSP90AB1	0.0716	0.131	0.304	0.0104	0.257
34	RAB3IL1	0.0812	0.452	0.312	0.0246	0.292
35	ZNF75A	0.134	0.214	0.259	0.0319	0.321
36	LRRC2	0.0758	0.301	0.388	0.0599	0.437
37	FBXO22	0.0694	0.138	0.345	0.0217	0.15
38	CNTNAP2	0.0776	0.211	0.238	0.0197	0.138
39	TSPYL4	0.106	0.137	0.231	0.0154	0.176
40	PCYOX1L	0.0759	0.276	0.258	0.0156	0.234
41	BCAT2	0.0441	0.0631	0.148	0.0231	0.119
42	AIDA	0.0937	0.164	0.447	0.0291	0.184
43	FLJ10232 (retired record)	0.45	0.834	0.685	0.0764	0.316
44	SDC3	0.141	0.275	0.252	0.0543	0.147
45	MSI1	0.144	0.497	0.395	0.0229	0.32
46	EIF2AK3	0.0388	0.0341	0.211	0.00428	0.147
47	RAB30	0.0998	0.146	0.296	0.0482	0.135
48	KPNA2	0.153	0.308	0.365	0.0511	0.106
49	MYL11	0.185	0.38	0.372	0.0401	0.192
50	LYZL6	0.151	0.266	0.335	0.034	0.34
51	CCL23	0.173	0.285	0.359	0.056	0.0988
52	KAT7	0.087	0.146	0.211	0.0251	0.181
53	RCVRN	0.104	0.0813	0.364	0.0462	0.11
54	CD99	0.116	0.2	0.226	0.0136	0.138
55	ADH1B	0.118	0.12	0.222	0.0127	0.148
56	PIP5K1P1	0.0897	0.249	0.31	0.033	0.261
57	KRT31	0.101	0.0769	0.215	0.0184	0.0468
58	HTR6	0.232	0.262	0.332	0.0468	0.154
59	COA7	0.139	0.133	0.28	0.0225	0.086
60	BARD1	0.0424	0.0564	0.238	0.0274	0.217
61	FBXO11	0.114	0.128	0.274	0.0623	0.154
62	NOAZFP	0.0771	0.263	0.343	0.0166	0.171
63	PCDHGA5	0.102	0.144	0.206	0.0397	0.155
